No constants are given. Whether binding was seen depends on the method and setting. In cells and extracts the contact can be indirect.
Target: T1, CD73 (NT5E, ecto-5-nucleotidase), endogenous (human (endogenous in PANC-1)) (UniProt P21589)
T1 sequence: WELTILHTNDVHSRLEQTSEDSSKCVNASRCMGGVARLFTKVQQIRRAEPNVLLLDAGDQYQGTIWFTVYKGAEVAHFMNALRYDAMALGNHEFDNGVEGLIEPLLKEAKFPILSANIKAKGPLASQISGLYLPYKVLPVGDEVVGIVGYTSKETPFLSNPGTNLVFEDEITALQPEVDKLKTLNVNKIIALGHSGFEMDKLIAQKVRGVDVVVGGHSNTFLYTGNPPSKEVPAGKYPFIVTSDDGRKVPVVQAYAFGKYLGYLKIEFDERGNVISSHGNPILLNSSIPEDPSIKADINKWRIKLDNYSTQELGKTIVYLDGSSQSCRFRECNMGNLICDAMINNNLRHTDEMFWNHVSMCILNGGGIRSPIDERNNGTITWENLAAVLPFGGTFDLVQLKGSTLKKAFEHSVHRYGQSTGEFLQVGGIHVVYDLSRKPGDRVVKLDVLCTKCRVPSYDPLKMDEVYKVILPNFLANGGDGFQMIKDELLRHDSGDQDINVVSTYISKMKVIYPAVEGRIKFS
Assay: co-IP; co-IP for CD73 and Snail (Figure S6A); cells and antibodies not given

By UniProt entry, the sequences of proteins in these tests, tags left out.
UniProt O95863: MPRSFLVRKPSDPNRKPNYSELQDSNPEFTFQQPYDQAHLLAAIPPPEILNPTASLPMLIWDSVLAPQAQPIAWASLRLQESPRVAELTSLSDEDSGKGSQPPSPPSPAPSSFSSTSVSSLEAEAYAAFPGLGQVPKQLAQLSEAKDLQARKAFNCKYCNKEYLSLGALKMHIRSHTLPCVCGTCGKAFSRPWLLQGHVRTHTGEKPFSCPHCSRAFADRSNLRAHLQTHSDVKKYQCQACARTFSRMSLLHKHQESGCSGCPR

## Snail, endogenous (from UniProt O95863 1-264)
  binding: no binding
